Test results as given in ChEMBL document CHEMBL5465560, “Selectivity Literature for EUbOPEN Chemogenomic Library” (2024).

The chains behind the UniProt entries cited, without tags or fusion partners. Where a name states a change or a piece, a line headed by the entry shows the natural chain unless it says otherwise.
UniProt P10721, whole entry L576P: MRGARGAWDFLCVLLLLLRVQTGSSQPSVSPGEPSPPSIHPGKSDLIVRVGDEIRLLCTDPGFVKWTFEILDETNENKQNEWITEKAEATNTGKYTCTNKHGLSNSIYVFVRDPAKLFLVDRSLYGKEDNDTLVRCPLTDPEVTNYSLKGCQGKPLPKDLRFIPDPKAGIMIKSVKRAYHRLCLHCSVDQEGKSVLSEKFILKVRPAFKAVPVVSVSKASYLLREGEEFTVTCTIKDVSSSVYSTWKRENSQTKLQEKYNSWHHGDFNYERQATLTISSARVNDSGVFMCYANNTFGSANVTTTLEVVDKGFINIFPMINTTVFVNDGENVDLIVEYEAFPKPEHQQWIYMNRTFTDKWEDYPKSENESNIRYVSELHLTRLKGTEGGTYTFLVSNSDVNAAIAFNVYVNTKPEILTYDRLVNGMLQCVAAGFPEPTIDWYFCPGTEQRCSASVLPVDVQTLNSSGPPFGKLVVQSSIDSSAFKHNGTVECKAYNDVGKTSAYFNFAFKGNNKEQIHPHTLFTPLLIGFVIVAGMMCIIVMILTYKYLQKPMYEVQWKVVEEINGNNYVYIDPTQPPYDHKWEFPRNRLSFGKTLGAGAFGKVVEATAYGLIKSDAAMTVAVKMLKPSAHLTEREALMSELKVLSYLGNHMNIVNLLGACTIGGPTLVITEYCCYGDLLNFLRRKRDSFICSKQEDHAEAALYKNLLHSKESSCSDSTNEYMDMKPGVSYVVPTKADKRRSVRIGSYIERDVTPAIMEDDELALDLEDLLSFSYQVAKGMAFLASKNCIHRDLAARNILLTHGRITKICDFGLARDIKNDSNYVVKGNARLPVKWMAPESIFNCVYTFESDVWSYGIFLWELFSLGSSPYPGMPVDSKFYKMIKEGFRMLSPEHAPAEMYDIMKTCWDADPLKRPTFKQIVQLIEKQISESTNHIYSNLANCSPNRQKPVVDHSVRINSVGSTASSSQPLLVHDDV
UniProt P10721, whole entry V559D/T670I: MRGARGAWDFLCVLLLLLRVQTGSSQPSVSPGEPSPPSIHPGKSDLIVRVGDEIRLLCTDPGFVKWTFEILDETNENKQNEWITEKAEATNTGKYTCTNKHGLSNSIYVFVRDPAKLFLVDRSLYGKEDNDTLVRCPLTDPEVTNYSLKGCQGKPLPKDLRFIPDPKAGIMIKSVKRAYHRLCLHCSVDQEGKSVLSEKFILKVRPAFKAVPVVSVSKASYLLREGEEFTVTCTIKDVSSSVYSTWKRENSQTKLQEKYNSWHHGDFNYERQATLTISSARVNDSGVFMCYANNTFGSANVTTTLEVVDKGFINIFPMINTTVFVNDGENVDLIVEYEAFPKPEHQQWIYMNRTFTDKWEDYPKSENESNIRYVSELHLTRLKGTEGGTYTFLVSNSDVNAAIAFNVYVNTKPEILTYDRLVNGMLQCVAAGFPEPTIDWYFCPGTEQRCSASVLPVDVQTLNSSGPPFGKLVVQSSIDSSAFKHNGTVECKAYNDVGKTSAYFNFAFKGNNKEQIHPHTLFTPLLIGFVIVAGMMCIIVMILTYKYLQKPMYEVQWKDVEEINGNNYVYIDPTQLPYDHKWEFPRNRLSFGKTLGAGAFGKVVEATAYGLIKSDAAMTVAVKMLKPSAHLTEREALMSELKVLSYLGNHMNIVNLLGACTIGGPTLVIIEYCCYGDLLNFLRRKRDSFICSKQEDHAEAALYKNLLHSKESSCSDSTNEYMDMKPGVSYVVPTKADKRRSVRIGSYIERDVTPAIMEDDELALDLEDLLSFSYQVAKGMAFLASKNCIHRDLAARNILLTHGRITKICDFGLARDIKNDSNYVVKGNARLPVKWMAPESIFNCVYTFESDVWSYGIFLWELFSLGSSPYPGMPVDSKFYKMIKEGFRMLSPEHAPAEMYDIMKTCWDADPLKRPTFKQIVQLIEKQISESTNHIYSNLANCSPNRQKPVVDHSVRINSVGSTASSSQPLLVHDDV
UniProt P10721, whole entry D816H: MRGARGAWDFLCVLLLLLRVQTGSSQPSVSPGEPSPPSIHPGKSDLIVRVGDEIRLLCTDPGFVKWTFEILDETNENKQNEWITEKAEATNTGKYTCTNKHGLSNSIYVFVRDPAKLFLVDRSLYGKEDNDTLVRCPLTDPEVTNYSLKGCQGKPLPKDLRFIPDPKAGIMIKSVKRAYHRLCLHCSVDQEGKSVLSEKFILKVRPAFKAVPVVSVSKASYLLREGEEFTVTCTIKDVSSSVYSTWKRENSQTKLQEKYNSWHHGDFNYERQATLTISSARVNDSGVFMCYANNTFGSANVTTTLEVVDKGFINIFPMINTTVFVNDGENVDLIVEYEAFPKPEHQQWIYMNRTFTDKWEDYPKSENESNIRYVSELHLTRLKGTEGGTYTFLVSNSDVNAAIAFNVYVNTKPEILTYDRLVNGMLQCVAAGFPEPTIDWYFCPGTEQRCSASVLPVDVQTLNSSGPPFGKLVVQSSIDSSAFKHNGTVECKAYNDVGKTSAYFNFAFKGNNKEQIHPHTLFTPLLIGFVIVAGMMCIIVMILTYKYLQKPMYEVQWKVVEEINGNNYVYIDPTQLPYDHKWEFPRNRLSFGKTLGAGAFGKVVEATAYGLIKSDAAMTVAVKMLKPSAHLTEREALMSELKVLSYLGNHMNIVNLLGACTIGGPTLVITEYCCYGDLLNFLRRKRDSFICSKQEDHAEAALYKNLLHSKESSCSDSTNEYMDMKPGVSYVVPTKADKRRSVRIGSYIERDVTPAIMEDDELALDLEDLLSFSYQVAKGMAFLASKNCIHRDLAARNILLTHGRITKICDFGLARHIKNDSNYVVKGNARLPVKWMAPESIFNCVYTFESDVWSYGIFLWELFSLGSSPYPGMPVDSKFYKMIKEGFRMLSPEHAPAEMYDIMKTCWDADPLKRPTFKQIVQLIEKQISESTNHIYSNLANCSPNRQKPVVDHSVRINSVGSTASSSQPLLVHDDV
UniProt P10721, whole entry V559D/V654A: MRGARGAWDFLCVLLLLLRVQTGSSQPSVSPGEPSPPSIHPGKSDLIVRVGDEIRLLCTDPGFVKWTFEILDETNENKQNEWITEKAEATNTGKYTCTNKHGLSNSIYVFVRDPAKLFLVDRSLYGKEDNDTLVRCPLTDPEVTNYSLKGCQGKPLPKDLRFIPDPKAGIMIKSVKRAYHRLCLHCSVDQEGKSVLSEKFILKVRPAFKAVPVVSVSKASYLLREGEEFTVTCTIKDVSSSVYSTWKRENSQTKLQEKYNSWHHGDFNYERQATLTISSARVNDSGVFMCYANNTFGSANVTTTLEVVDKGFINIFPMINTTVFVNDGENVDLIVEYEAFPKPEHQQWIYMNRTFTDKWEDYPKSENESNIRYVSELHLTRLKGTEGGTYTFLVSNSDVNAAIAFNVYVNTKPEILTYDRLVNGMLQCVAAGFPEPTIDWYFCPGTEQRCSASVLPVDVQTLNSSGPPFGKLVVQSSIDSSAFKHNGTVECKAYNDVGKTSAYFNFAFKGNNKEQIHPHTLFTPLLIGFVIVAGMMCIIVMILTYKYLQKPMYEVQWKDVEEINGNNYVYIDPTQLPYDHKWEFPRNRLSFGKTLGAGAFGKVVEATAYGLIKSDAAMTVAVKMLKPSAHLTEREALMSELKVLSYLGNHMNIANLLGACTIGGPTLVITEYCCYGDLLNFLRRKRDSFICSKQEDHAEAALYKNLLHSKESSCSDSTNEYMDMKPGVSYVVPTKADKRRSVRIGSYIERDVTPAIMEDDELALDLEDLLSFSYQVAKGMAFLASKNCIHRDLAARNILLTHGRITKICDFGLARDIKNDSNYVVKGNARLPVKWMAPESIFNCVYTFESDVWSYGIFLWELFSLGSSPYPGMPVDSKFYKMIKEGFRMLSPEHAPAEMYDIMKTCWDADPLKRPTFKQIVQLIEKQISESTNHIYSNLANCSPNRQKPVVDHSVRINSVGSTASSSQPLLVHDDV
UniProt P10721, whole entry A829P: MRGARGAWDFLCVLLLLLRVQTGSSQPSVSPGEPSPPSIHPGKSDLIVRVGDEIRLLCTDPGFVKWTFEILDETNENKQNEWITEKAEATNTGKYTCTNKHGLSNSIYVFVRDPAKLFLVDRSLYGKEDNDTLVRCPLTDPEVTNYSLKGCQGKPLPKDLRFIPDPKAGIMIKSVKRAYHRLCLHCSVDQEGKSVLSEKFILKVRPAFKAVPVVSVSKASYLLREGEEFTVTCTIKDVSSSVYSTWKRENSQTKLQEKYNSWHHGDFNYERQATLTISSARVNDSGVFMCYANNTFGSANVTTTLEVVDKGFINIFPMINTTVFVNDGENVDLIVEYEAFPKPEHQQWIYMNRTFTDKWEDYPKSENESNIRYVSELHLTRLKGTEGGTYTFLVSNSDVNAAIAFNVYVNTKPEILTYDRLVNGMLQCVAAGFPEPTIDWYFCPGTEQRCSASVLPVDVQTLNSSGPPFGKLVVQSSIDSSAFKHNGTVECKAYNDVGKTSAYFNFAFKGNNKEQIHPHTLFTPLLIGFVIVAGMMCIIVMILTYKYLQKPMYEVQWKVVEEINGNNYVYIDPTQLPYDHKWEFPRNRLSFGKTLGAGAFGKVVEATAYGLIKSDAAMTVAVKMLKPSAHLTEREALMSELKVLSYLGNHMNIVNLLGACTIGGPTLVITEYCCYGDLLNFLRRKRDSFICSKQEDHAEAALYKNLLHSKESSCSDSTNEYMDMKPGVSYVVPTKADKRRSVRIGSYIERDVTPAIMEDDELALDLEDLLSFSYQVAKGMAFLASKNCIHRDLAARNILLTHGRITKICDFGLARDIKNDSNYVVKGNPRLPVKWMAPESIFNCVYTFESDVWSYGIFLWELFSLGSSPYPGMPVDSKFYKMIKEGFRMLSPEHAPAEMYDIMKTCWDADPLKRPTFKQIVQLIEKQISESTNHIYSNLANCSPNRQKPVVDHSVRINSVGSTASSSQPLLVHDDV
UniProt P10721, whole entry D816V: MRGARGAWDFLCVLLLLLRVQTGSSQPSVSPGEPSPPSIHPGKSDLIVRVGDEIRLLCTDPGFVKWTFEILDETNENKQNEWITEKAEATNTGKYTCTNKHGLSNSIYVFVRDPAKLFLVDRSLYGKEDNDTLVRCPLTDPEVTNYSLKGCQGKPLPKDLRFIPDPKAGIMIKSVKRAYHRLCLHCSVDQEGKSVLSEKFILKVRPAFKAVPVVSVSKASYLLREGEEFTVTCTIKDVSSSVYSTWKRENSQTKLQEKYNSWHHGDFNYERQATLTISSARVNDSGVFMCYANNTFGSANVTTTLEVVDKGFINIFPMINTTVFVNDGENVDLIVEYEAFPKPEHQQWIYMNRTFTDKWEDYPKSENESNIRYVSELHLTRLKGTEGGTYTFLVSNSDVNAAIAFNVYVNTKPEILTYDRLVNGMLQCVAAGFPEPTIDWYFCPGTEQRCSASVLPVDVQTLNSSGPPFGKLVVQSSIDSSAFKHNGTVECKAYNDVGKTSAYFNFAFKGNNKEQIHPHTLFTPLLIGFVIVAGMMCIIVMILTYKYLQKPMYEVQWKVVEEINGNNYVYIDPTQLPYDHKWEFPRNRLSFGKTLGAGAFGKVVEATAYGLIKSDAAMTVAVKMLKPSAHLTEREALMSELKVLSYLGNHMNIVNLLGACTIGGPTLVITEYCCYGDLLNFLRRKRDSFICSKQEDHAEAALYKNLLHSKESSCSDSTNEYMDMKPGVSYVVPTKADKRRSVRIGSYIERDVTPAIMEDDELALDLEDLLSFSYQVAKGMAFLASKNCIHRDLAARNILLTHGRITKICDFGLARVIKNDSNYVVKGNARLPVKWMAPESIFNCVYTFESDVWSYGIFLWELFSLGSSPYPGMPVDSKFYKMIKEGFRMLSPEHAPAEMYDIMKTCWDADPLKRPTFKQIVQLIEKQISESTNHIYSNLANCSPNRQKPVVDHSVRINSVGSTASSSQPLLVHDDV
UniProt Q13976: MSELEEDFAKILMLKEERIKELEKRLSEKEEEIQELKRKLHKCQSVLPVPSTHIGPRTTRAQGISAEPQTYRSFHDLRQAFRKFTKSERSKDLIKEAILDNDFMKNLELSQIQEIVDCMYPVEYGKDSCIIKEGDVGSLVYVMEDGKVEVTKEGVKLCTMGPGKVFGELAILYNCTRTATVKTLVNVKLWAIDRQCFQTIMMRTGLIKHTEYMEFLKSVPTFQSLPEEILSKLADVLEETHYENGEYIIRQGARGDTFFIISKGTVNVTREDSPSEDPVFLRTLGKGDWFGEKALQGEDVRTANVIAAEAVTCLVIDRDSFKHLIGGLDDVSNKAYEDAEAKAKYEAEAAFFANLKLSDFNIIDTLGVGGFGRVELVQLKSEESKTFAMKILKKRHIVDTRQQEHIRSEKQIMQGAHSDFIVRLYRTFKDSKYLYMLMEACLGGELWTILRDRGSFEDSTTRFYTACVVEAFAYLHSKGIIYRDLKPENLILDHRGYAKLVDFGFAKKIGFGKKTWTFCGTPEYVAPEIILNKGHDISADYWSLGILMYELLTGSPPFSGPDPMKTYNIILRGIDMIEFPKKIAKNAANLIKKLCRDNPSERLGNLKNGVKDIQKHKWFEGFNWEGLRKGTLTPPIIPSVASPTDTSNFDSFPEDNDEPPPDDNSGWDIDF

How the values were obtained:
Conditions in all cases: at 1 µM
[1] = target: cAMP-dependent protein kinase catalytic subunit PRKX (Homo sapiens) (UniProt P51817); assay: Selectivity interaction (KinomeScan (DiscoverX)) EUB0001581a PRKX
[2] = target: Serine/threonine-protein kinase MARK1 (Homo sapiens) (UniProt Q9P0L2); assay: Selectivity interaction (KinomeScan (DiscoverX)) EUB0001581a MARK1
[3] = target: Serine/threonine-protein kinase 38 (Homo sapiens) (UniProt Q15208); assay: Selectivity interaction (KinomeScan (DiscoverX)) EUB0001581a STK38
[4] = system: Hepatocyte growth factor receptor (Homo sapiens), P08581 [M1250T]; assay: Selectivity interaction (KinomeScan (DiscoverX)) EUB0001581a MET
[5] = target: Serine/threonine-protein kinase D1 (Homo sapiens) (UniProt Q15139); assay: Selectivity interaction (KinomeScan (DiscoverX)) EUB0001581a PRKD1
[6] = target: Dual serine/threonine and tyrosine protein kinase (Homo sapiens) (UniProt Q6XUX3); assay: Selectivity interaction (KinomeScan (DiscoverX)) EUB0001581a DSTYK
[7] = target: Mitogen-activated protein kinase kinase kinase 5 (Homo sapiens) (UniProt Q99683); assay: Selectivity interaction (KinomeScan (DiscoverX)) EUB0001581a MAP3K5
[8] = target: Mitogen-activated protein kinase 3 (Homo sapiens, UniProt P27361)
[9] = target: cAMP-dependent protein kinase catalytic subunit alpha (Homo sapiens, UniProt P17612); assay: Selectivity interaction (KinomeScan (DiscoverX)) EUB0001581a PRKACA
[10] = target: Casein kinase I isoform gamma-3 (Homo sapiens) (UniProt Q9Y6M4); assay: Selectivity interaction (KinomeScan (DiscoverX)) EUB0001581a CSNK1G3
[11] = system: Mast/stem cell growth factor receptor Kit (Homo sapiens), P10721 [L576P]; assay: (§1) Selectivity interaction (KinomeScan (DiscoverX)) EUB0001581a KIT
[12] = system: Mast/stem cell growth factor receptor Kit (Homo sapiens), P10721 [V559D,T670I]; assay: as §1
[13] = system: Mast/stem cell growth factor receptor Kit (Homo sapiens), P10721 [D816H]; assay: as §1
[14] = system: Mast/stem cell growth factor receptor Kit (Homo sapiens), P10721 [V559D,V654A]; assay: as §1
[15] = system: Mast/stem cell growth factor receptor Kit (Homo sapiens), P10721 [A829P]; assay: as §1
[16] = system: Mast/stem cell growth factor receptor Kit (Homo sapiens), P10721 [D816V]; assay: as §1
[17] = system: Mast/stem cell growth factor receptor Kit (Homo sapiens), P10721 [V559D]; assay: as §1
[18] = target: Mast/stem cell growth factor receptor Kit (Homo sapiens, UniProt P10721); assay: as §1
[19] = target: Serine/threonine-protein kinase MRCK beta (Homo sapiens) (UniProt Q9Y5S2); assay: Selectivity interaction (KinomeScan (DiscoverX)) EUB0001581a CDC42BPB
[20] = target: BDNF/NT-3 growth factors receptor (Homo sapiens) (UniProt Q16620); assay: Selectivity interaction (KinomeScan (DiscoverX)) EUB0001581a NTRK2
[21] = target: Ribosomal protein S6 kinase alpha-1 (Homo sapiens, UniProt Q15418); assay: Selectivity interaction (KinomeScan (DiscoverX)) EUB0001581a RPS6KA1
[22] = target: Serine/threonine-protein kinase Nek2 (Homo sapiens) (UniProt P51955); assay: Selectivity interaction (KinomeScan (DiscoverX)) EUB0001581a NEK2
[23] = target: Receptor tyrosine-protein kinase erbB-4 (Homo sapiens, UniProt Q15303); assay: Selectivity interaction (KinomeScan (DiscoverX)) EUB0001581a ERBB4
[24] = target: Mitogen-activated protein kinase kinase kinase kinase 1 (Homo sapiens) (UniProt Q92918); assay: Selectivity interaction (KinomeScan (DiscoverX)) EUB0001581a MAP4K1
[25] = target: Dual specificity mitogen-activated protein kinase kinase 2 (Homo sapiens) (UniProt P36507); assay: Selectivity interaction (KinomeScan (DiscoverX)) EUB0001581a MAP2K2
[26] = target: Mitogen-activated protein kinase 11 (Homo sapiens) (UniProt Q15759); assay: Selectivity interaction (KinomeScan (DiscoverX)) EUB0001581a MAPK11
[27] = target: Vascular endothelial growth factor receptor 2 (Homo sapiens, UniProt P35968); assay: Selectivity interaction (KinomeScan (DiscoverX)) EUB0001581a KDR
[28] = target: Serine/threonine-protein kinase 16 (Homo sapiens, UniProt O75716); assay: Selectivity interaction (KinomeScan (DiscoverX)) EUB0001581a STK16
[29] = target: Dual specificity testis-specific protein kinase 1 (Homo sapiens) (UniProt Q15569); assay: Selectivity interaction (KinomeScan (DiscoverX)) EUB0001581a TESK1
[30] = target: Cyclin-dependent kinase 7 (Homo sapiens, UniProt P50613)
[31] = target: Protein kinase C epsilon type (Homo sapiens) (UniProt Q02156); assay: Selectivity interaction (KinomeScan (DiscoverX)) EUB0001581a PRKCE
[32] = target: NUAK family SNF1-like kinase 1 (Homo sapiens) (UniProt O60285); assay: Selectivity interaction (KinomeScan (DiscoverX)) EUB0001581a NUAK1
[33] = target: Serine/threonine-protein kinase 38-like (Homo sapiens) (UniProt Q9Y2H1); assay: Selectivity interaction (KinomeScan (DiscoverX)) EUB0001581a STK38L
[34] = target: Serine/threonine-protein kinase SBK1 (Homo sapiens) (UniProt Q52WX2); assay: Selectivity interaction (KinomeScan (DiscoverX)) EUB0001581a SBK1
[35] = target: cGMP-dependent protein kinase 1 (Homo sapiens) (UniProt Q13976); assay: Selectivity interaction (KinomeScan (DiscoverX)) EUB0001581a PRKG1
[36] = target: Mitogen-activated protein kinase kinase kinase 1 (Homo sapiens, UniProt Q13233); assay: Selectivity interaction (KinomeScan (DiscoverX)) EUB0001581a MAP3K1
[37] = target: Ephrin type-B receptor 6 (Homo sapiens) (UniProt O15197)
[38] = target: cGMP-dependent protein kinase 2 (Homo sapiens) (UniProt Q13237); assay: Selectivity interaction (KinomeScan (DiscoverX)) EUB0001581a PRKG2
[39] = target: LIM domain kinase 2 (Homo sapiens) (UniProt P53671); assay: Selectivity interaction (KinomeScan (DiscoverX)) EUB0001581a LIMK2
[40] = target: Serine/threonine-protein kinase RIO1 (Homo sapiens) (UniProt Q9BRS2); assay: Selectivity interaction (KinomeScan (DiscoverX)) EUB0001581a RIOK1
[41] = target: Calcium/calmodulin-dependent protein kinase type 1G (Homo sapiens) (UniProt Q96NX5); assay: Selectivity interaction (KinomeScan (DiscoverX)) EUB0001581a CAMK1G

For `C[C@@H]1C[C@H](N)C[C@H](c2ccncc2NC(=O)c2ccc(F)c(-c3c(F)cccc3F)n2)C1`, the % of control [1] was 100%, the % of control [2] was 81% and the % of control [3] was 100%. It also gave a % of control [4] of 81%, a % of control [5] of 32% and a % of control [6] of 93%. The % of control [7] was 100%, the % of control [8] was 95% and the % of control [9] was 100%. For the same compound, the % of control [10] was 82%, the % of control [11] was 100% and the % of control [12] was 85%. For the same compound, the % of control [13] was 98%, the % of control [14] was 100% and the % of control [15] was 100%. It also gave a % of control [16] of 83%, a % of control [17] of 92% and a % of control [18] of 82%. The % of control [19] was 100%, the % of control [20] was 82% and the % of control [21] was 87%. The % of control [22] was 100%, the % of control [23] was 100% and the % of control [24] was 87%. It also gave a % of control [25] of 97%, a % of control [26] of 100% and a % of control [27] of 98%. The % of control [28] was 90%, the % of control [29] was 100% and the % of control [30] was 94%. It also gave a % of control [31] of 72%, a % of control [32] of 81% and a % of control [33] of 99%. It also gave a % of control [34] of 100%, a % of control [35] of 84% and a % of control [36] of 91%. It also gave a % of control [37] of 96%, a % of control [38] of 100% and a % of control [39] of 100%. It also gave a % of control [40] of 78% and a % of control [41] of 83%.
